Results are given in words; binding and its absence hold for the method and conditions named. In cells and extracts the contact can be indirect. Some results given as binding are weak or reduced against the parent protein; the word gives no strength.
Molecular target: T1, Matrin 3 (human (endogenous in HCT116)) (UniProt P43243)
T1 sequence: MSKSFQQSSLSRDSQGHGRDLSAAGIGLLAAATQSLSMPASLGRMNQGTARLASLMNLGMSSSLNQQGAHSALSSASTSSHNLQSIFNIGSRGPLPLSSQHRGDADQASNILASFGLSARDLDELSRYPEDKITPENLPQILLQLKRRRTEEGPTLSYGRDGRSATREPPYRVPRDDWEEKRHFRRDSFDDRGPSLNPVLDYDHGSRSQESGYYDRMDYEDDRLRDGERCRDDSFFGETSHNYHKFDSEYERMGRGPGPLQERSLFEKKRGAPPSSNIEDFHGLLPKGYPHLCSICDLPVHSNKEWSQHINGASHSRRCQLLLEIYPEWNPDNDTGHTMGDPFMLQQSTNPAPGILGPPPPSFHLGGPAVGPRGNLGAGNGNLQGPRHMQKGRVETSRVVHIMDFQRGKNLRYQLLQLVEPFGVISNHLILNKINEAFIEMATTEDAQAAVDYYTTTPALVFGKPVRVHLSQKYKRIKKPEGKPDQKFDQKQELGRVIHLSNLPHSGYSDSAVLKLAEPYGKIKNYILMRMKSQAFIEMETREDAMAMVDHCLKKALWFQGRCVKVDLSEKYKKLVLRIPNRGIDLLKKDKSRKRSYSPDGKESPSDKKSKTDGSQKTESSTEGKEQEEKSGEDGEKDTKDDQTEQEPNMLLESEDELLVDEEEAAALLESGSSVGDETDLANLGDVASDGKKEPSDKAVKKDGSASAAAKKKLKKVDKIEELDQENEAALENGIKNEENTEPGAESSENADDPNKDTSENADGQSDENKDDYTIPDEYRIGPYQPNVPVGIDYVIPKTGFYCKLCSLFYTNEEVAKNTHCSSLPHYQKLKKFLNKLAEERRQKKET
Experiment: co-IP; Matrin 3 antibody or IgG on protein A/G magnetic beads, 500 µg HCT116 whole cell lysate in RIPA buffer, 4 hr at 4°C; cells untreated or treated with 5-FU (100 µM) for 24 hr; beads untreated or treated with RNase A and DNase for 30 min at 37°C; immunoblot for p53 (DO-1)

Substance: p53 (from UniProt P04637 1-393)
- binding: binds

Reference: PMC5470874
